# Measured values from patent publication US20140206678A1, “INHIBITORS OF MTOR KINASE AS ANTI -VIRAL AGENT” (KADMON CORPORATION, LLC, priority 2011, published 2014).
# At least one structure is not confirmed: it was looked up by name or label, or the drawing left a doubt.
# Legend:
# HCMV DNA = assay: HCMV viral DNA in infected fibroblasts by qPCR; format: cell-based, human cytomegalovirus; conditions: rapamycin 20 nM; 0.05 PFU/cell
# Procedure: (§1) FIG. 2. […] Serum-starved confluent fibroblasts were infected with HCMV at a multiplicity of 3 PFU/cell. […] Control cultures received the vehicle in which Torin1 was dissolved (NT). At 2 hpi cells were harvested, and cell-associated viral DNA was quantified by real-time PCR analysis. Error bars represent the standard errors of the means from two independent experiments performed in duplicate. […] The level of IE1 was determined at 6 hpi by a Western blot assay using an IE1-specific monoclonal antibody. The image is representative of two independent experiments. […] The expression of a GFP marker gene present in the viral genome was monitored at 24 h after infection in the presence or absence of drug.
# FIG. 3. […] Cells were harvested at the indicated times, and the accumulation of the indicated proteins was analyzed by Western blotting. […] At the indicated times DNA was isolated, and viral DNA was quantified by qPCR. Equivalent amounts of DNA were analyzed for each sample, and the results are normalized to the level of actin DNA per sample. […] At the indicated times the amount of UL99 RNA was determined by qPCR, and the results are normalized to the amount of actin RNA in each sample. […]
# Briefly, primary human fibroblasts were infected with BADinGFP at a multiplicity of 0.05 PFU/cell. […] For each sample, DNA was quantified by using a NanoDrop spectrophotometer (Thermo Scientific). […]
# [1] = tested on: mTORC1 targets (4EBP1, rpS6); assay: Phosphorylation of mTORC1 targets in HCMV-infected fibroblasts (Western blot); format: cell-based, human; conditions: rapamycin 20 nM, Torin1 250 nM
# [2] = tested on: mTORC1 targets (4EBP1, rpS6); assay: Phosphorylation of mTORC1 targets in MCMV-infected MEFs (Western blot); format: cell-based, mouse; conditions: 48 hpi; rapamycin 20 nM, Torin1 250 nM, LY294002 20 μM
# [3] = tested on: HCMV proteins IE1, pUL44, pUL99; assay: Western blot of HCMV proteins in infected fibroblasts; format: cell-based, human cytomegalovirus; conditions: 6 to 96 hpi; rapamycin 20 nM, Torin1 250 nM; 3 PFU/cell
# Procedure: as §1
# FIG. 3. […] (A) Rapamycin-resistant mTOR activity is required for the accumulation of an some but not all HCMV proteins. […] Cells were harvested at the indicated times, and the accumulation of the indicated proteins was analyzed by Western blotting. […] At the indicated times DNA was isolated, and viral DNA was quantified by qPCR. Equivalent amounts of DNA were analyzed for each sample, and the results are normalized to the level of actin DNA per sample. […] At the indicated times the amount of UL99 RNA was determined by qPCR, and the results are normalized to the amount of actin RNA in each sample.
# Cells were lysed in radioimmunoprecipitation assay (RIPA) buffer (50 mM Tris-HCl [pH 7.4], 1% NP-40, 0.25% sodium deoxycholate, 150 mM NaCl, 1 mM EDTA) containing protease inhibitors (complete EDTA free; Roche). Protein concentrations in each lysate were determined by the Bradford assay. 30 g of protein was analyzed per sample. Proteins in cell lysates were resolved on SDS-containing 10% polyacrylamide gels. Proteins were transferred onto Protran membranes by using a semidry transfer apparatus. […]
# Antibodies to pUL99 have been described previously (Silva, et al. J. Virol. (2003) 77:10594-10605). In addition, accumulation of HCMV DNA was monitored following infection using the methods described above.
# UL99 mRNA = assay: UL99 late transcript level by qPCR in HCMV-infected fibroblasts; format: cell-based, human cytomegalovirus; conditions: rapamycin 20 nM, Torin1 250 nM; 3 PFU/cell
smiles,measurement,setting,value
CO[C@H]1C[C@@H]2CC[C@@H](C)[C@@](O)(O2)C(=O)C(=O)N2CCCC[C@H]2C(=O)O[C@H]([C@H](C)C[C@@H]2CC[C@@H](O)[C@H](OC)C2)CC(=O)[C@H](C)/C=C(\C)[C@@H](O)[C@@H](OC)C(=O)[C@H](C)C[C@H](C)/C=C/C=C/C=C/1C [rapamycin],viral DNA accumulation (in words),HCMV DNA,modestly inhibited
same,phosphorylation of 4EBP1 during HCMV infection,[1],inability to block
same,induction of rpS6 phosphorylation during HCMV infection,[1]; 48 hpi,markedly inhibited
same,phosphorylation of 4EBP1 in MCMV-infected MEFs,[2],not
same,phosphorylation of rpS6 in MCMV-infected MEFs,[2],completely inhibited
same,accumulation of early protein pUL44,[3],little effect
same,accumulation of immediate-early protein IE1,[3],little effect
same,accumulation of late protein pUL99,[3],to a modest extent
same,levels of UL99 mRNA,UL99 mRNA,decreased
